PubChem BioAssay AID624291 (National Center for Advancing Translational Sciences (NCATS), 2012)
Hit rate of the full screen: of about 350,000 compounds, about 220 (0.063%) were called active. Listed are the inconclusive results; actives and inactives stand elsewhere. Calls come from the whole dose curve; as a rule, active = well fitted activation curve with a large enough effect; inconclusive = small, poorly fitted or top-dose-only effect; inactive = no such curve, though single readings can be large or run the other way. Some tests of the compounds listed are not included; inactive here does not mean inactive elsewhere.

Experiment: qHTS for Activators of Integrin-Mediated Alleviation for Muscular Dystrophy; note: nearly all actives have a fitted effect of over 60% in size
Conditions: alpha7betagal myoblasts, beta-gal FDG fluorescence, 48 h
Potency is the fitted concentration of half-maximal effect.

Q: With CN(C)C1(CNC(=O)c2ccc(Br)cc2)CCCCC1 as the compound, how does the Potency read?
A: inconclusive: 3.16 µM

Q: Which Potency does the source give for COc1cc(C(=O)NCC2(N(C)C)CCCCC2)c([N+](=O)[O-])cc1OC here?
A: inconclusive: 5.01 µM
